This is one part of the list. The calls rarely recur for the same compound in another form.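 In K562 cells expressing nanoluciferase-fused kinases, luminescence was recorded at 4 h intervals between 2 and 18 h, normalized as percent of control with DMSO at 100% and a positive control at 0%. A significant (2 sigma) signal drop marks a time point as decreased. The authors' rule for a hit is not shown and takes in more than the number of time points.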
What was measured:
Assay in all cases: number of time points (of 5) at which kinase-Nluc abundance scored as decreased, DMSO-normalised (count); higher = more persistent destabilization
Conditions in all cases: K562; 2-18 h
ALK = ALK (UniProt Q9UM73)
ARAF = ARAF (UniProt P10398)
AURKA = AURKA (UniProt O14965)
AURKB = AURKB (UniProt Q96GD4)
AURKC = AURKC (UniProt Q9UQB9)
BLK = BLK (UniProt P51451)
BMX = BMX (UniProt P51813)
BRAF = BRAF (UniProt P15056)
BRAF_V600E = test system: BRAF_V600E
BTK = BTK (UniProt Q06187)
CAMK2A = CAMK2A (UniProt Q9UQM7)
CAMK2G = CAMK2G (UniProt Q13555)
CDK10 = CDK10 (UniProt Q15131)
CDK2 = CDK2 (UniProt P24941)
CDK3 = CDK3 (UniProt Q00526)
CDK5 = CDK5 (UniProt Q00535)
CDK6 = CDK6 (UniProt Q00534)
CHEK2 = CHEK2 (UniProt O96017)
CSF1R = CSF1R (UniProt P07333)
CSK = CSK (UniProt P41240)

By UniProt entry, the sequences of proteins in these tests, tags left out. Where a name states a change or a piece, a line headed by the entry shows the natural chain unless it says otherwise.
UniProt Q9UM73: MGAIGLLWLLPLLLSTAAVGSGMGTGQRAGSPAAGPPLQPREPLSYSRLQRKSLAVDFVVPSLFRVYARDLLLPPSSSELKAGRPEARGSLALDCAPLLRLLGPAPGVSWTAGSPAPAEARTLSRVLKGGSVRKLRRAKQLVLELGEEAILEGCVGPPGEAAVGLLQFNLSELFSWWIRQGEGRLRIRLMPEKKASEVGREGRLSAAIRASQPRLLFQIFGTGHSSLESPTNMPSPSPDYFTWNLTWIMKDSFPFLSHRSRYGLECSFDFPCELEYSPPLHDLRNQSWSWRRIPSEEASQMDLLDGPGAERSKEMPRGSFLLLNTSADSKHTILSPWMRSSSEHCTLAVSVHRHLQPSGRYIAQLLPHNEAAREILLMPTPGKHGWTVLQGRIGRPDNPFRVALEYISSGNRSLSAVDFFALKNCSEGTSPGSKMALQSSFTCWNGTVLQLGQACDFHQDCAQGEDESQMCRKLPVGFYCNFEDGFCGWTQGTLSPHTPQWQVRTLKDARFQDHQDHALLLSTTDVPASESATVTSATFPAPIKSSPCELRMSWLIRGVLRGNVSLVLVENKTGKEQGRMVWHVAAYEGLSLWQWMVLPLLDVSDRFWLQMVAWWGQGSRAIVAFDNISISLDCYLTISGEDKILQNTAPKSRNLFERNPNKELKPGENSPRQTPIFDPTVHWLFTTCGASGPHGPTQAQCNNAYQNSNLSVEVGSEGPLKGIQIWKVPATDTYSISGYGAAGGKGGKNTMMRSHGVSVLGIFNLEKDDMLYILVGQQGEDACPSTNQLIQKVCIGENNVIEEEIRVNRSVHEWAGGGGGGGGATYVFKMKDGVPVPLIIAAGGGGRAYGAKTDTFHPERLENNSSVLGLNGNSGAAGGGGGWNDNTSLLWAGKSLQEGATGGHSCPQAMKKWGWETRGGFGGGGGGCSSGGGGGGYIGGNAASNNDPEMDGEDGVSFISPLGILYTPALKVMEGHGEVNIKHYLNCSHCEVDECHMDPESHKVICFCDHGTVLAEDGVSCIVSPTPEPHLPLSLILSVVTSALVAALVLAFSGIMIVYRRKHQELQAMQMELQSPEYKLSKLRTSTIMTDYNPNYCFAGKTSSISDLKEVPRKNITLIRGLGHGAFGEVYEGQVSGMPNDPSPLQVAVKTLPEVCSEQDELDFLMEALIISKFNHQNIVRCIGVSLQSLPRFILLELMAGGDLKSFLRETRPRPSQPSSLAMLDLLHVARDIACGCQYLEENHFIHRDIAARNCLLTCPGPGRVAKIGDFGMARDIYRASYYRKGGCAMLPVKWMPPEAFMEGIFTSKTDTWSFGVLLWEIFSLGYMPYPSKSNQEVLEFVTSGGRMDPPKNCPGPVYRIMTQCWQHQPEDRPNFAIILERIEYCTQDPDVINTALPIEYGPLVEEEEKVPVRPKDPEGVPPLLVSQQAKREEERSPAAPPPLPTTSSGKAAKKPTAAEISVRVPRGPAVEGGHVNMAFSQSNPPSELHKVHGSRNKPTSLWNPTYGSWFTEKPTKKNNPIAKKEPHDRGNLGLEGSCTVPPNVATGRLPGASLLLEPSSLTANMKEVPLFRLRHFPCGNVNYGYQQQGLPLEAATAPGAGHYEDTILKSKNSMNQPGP
UniProt O14965: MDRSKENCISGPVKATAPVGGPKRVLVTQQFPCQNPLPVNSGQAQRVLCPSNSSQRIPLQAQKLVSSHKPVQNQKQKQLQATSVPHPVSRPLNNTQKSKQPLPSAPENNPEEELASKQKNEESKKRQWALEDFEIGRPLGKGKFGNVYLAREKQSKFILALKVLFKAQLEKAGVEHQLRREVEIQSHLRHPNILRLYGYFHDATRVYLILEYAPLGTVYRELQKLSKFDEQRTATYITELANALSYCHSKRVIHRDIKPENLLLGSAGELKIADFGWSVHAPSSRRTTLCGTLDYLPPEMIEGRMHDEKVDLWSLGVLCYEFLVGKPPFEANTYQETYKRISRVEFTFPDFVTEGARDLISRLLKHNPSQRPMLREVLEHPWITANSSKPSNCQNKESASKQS
UniProt Q9UQB9: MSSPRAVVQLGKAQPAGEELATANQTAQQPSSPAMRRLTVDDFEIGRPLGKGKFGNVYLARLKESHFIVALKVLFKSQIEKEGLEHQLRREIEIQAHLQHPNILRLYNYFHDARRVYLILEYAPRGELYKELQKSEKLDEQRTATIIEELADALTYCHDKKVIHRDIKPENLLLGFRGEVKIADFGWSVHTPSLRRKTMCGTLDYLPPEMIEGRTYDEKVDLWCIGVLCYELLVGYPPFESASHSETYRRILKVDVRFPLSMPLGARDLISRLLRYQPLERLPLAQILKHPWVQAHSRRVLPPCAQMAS
UniProt P51451: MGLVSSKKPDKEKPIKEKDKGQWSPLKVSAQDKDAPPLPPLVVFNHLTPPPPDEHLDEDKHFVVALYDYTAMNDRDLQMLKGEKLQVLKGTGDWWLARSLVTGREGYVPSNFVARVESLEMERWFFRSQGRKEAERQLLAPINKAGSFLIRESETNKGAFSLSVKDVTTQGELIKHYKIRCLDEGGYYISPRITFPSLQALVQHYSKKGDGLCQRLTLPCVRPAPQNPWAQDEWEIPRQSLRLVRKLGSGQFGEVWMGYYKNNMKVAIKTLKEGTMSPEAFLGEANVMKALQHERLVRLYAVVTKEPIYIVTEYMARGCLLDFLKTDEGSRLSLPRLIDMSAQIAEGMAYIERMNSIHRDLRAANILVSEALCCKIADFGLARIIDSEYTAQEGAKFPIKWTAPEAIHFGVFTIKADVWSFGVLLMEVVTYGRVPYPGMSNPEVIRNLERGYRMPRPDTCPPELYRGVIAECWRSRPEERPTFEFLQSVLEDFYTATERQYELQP
UniProt P15056, whole entry, looked up: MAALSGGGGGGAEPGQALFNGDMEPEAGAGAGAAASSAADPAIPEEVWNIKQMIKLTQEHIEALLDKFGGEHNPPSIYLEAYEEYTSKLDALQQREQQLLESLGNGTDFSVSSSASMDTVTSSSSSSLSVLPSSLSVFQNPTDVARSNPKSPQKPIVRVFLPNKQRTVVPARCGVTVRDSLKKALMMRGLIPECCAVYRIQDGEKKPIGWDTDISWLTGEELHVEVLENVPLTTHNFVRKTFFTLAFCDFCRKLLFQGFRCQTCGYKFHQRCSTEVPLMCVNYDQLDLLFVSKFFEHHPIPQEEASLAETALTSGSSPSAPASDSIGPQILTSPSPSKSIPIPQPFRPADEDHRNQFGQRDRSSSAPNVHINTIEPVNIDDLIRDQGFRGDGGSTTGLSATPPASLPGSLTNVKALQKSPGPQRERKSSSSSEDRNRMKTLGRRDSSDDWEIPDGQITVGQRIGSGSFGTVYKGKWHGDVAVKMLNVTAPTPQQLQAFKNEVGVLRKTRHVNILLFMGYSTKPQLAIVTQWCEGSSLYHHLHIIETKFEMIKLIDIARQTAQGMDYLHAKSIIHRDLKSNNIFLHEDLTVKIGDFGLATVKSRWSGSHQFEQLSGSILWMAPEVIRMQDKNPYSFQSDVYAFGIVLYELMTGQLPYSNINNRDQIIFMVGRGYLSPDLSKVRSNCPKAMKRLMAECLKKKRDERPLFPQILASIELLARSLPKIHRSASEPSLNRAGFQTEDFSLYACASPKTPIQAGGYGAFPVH
UniProt Q06187: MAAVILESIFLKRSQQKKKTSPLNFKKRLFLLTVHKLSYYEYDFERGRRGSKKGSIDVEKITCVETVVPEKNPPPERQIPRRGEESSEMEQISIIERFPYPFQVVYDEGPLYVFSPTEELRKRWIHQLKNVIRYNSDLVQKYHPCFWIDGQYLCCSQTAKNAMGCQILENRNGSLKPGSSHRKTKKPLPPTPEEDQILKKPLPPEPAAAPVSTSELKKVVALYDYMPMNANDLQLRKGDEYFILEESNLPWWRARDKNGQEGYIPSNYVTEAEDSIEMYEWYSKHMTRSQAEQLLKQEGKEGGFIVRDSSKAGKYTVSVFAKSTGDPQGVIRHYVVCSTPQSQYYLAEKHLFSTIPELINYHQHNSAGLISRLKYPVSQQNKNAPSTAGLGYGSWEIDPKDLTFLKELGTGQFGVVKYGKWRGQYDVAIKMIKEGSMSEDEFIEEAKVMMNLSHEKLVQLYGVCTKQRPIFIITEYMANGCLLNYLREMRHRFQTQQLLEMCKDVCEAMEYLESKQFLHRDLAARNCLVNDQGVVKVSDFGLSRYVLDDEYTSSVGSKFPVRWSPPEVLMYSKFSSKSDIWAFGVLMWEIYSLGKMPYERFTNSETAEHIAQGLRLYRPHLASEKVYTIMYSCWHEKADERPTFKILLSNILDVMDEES
UniProt Q9UQM7, whole entry: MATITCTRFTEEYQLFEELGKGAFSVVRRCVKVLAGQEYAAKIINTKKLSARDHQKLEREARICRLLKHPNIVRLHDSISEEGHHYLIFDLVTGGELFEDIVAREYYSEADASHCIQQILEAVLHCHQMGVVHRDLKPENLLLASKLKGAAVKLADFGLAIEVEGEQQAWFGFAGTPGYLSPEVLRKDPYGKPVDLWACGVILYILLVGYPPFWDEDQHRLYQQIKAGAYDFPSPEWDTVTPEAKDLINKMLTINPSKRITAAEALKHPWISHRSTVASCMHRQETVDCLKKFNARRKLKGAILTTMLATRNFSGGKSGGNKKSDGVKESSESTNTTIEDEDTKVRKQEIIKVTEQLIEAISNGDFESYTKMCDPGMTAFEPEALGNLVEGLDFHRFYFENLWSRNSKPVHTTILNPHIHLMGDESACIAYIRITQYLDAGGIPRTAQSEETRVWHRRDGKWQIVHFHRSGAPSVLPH
UniProt Q15131: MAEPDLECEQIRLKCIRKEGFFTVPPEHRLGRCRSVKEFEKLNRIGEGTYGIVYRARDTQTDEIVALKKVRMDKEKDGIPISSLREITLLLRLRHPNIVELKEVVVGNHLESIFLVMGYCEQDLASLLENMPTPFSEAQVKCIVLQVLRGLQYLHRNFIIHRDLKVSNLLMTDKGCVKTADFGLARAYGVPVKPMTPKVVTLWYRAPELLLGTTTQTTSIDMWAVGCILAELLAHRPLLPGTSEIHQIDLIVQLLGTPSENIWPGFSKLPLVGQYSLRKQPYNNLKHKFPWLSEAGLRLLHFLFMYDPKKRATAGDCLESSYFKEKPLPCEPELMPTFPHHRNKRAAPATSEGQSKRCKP
UniProt Q00526: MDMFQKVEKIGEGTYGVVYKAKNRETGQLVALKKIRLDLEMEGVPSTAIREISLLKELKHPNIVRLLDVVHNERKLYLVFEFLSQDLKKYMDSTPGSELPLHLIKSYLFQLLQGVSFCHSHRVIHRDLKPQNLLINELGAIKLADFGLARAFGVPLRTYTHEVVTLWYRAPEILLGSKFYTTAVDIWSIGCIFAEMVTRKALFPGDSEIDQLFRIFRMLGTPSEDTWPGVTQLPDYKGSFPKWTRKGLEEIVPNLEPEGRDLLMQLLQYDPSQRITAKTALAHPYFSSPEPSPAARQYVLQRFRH
UniProt O96017, whole entry: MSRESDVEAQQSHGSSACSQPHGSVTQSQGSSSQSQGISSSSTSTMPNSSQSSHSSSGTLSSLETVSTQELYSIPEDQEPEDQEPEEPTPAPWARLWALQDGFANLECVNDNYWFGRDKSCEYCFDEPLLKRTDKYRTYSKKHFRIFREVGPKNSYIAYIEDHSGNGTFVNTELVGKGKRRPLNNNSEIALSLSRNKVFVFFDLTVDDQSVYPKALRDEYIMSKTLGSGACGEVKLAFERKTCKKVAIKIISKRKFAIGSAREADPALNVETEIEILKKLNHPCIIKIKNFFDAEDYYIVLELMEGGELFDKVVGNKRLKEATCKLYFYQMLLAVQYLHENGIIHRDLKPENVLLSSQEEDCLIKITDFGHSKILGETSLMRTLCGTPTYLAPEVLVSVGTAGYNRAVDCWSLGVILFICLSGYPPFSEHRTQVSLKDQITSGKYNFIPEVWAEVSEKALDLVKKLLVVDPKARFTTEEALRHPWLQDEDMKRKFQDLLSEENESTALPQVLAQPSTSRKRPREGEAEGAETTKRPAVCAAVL
UniProt P41240: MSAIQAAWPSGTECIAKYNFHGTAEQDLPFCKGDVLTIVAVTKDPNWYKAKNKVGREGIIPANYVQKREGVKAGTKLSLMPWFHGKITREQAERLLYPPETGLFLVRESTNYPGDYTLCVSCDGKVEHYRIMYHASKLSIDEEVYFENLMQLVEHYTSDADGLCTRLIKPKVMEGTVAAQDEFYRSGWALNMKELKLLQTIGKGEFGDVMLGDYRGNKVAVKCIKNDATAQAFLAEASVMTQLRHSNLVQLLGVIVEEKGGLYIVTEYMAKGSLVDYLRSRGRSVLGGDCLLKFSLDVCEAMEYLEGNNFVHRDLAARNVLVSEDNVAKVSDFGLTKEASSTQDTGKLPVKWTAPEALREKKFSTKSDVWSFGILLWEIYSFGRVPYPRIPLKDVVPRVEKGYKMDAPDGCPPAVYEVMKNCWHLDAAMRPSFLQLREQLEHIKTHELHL

Measured: number of time points

CC(C)(CCCCCC(O)CCCCCC(C)(C)C(=O)O)C(=O)O [Bempedoic acid] (10 µM)
0: all assays above

CC(C)(C)S(=O)(=O)c1cc2c(Nc3ccc4scnc4c3)ncnc2cc1OCCOP(=O)(O)O (2 µM)
0: all assays above

COc1cc2nc(NC3CC3)nc(NC3CCN(C(C)C)CC3)c2cc1OC (10 µM)
3: BLK
1: AURKA | BMX | BRAF_V600E
0: all other assays above

COc1cc2nnc(C(N)=O)c(Nc3ccc(C)cc3F)c2cc1N1CCN(CCO)CC1 (2.5 µM)
0: all assays above

O=C(Nc1ccc(F)cc1F)C(NC(=S)Nc1cc(C(F)(F)F)cc(C(F)(F)F)c1)c1ccccc1 (racemic) (2.5 µM)
0: all assays above

Arranged by length of the SMILES (high to low): part of the list above
CC(C)(C)S(=O)(=O)c1cc2c(Nc3ccc4scnc4c3)ncnc2cc1OCCOP(=O)(O)O (2 µM)
0: all assays above

COc1cc2nc(NC3CC3)nc(NC3CCN(C(C)C)CC3)c2cc1OC (10 µM)
3: BLK
1: AURKA | BMX | BRAF_V600E
0: all other assays above

CC(C)(CCCCCC(O)CCCCCC(C)(C)C(=O)O)C(=O)O [Bempedoic acid] (10 µM)
0: all assays above

(next part)

CO[C@]1(C(=O)N[C@@H](C)c2ccc(-n3cc(F)cn3)nc2)CC[C@H](c2nc(C)cc(Nc3cc(C)[nH]n3)n2)CC1 [Pralsetinib] (10 µM)
0: all assays above

Oc1ccc(-c2cnc3ccc(NCc4ccco4)nn23)cc1 [IRAK inhibitor 2] (2.5 µM)
1: BRAF_V600E | CDK2
0: all other assays above

CCOc1cc(N2CCC(O)CC2)ccc1Nc1ncc2c(n1)N(C1CCCC1)CCC(=O)N2C (2.5 µM)
0: all assays above

CC(=O)O/N=C1/C(c2c(O)[nH]c3cc(Br)ccc23)=Nc2ccccc21 [BIO-acetoxime] (10 µM)
0: all assays above

CC(=O)Nc1nc(C)c(-c2cc(C)c3c(c2)CN([C@@H](C)C2CC2)C3=O)s1 (10 µM)
0: all assays above

CN(C)CCn1cc2cc(NC(=O)c3cccc(C(F)(F)F)n3)c(C(C)(C)O)cc2n1 (10 µM)
0: all assays above

CCCCC(=O)OCC(=O)[C@]1(O)Cc2c(O)c3c(c(O)c2[C@@H](O[C@H]2C[C@H](NC(=O)C(F)(F)F)[C@H](O)[C@H](C)O2)C1)C(=O)c1c(OC)cccc1C3=O [Valrubicin] (10 µM)
1: BRAF_V600E
0: all other assays above

CC1=CC(=O)C(C(C)C)=C/C1=N/OC(=O)c1ccccc1C [Poloxin] (2.5 µM)
0: all assays above

CC1(C)CN(C(=O)c2ccc(-c3cccc4nc(NC(=O)C5CC5)nn34)cc2)C1 [Solcitinib] (10 µM)
0: all assays above

Cc1cc2c(F)c(Oc3ncnn4cc(OC[C@@H](C)OC(=O)[C@H](C)N)c(C)c34)ccc2[nH]1 [Brivanib (alaninate)] (10 µM)
0: all assays above

CCOc1cc(=O)[nH]cc1-c1ccc(CC(=O)Nc2cc(C(C)(C)C(F)(F)F)on2)c(F)c1 (10 µM)
0: all assays above

O=C1C=CC2=C3c4cc(O)c(O)cc4CC3(O)COC2=C1O (stereo not given) [Hematein] (10 µM)
0: all assays above

Cc1n[nH]c2ncc(C(=O)N3CCC[C@H]3c3ccc(Cl)cc3)cc12 (10 µM)
0: all assays above

CO/N=C1/C(c2c(O)[nH]c3cc(Cl)c(Cl)cc23)=Nc2ccccc21 (10 µM)
0: all assays above

CC1=C(C#N)C(c2ccc3[nH]nc(C)c3c2)C(C#N)=C(C)N1 (10 µM)
0: all assays above

CS(=O)(=O)c1cccc(CNc2nc(Nc3ccc4c(c3)CCC(=O)N4)ncc2C(F)(F)F)c1 (10 µM)
0: all assays above

COc1ccc(Br)c(C=O)c1O [6-Bromo-2-hydroxy-3-methoxybenzaldehyde] (10 µM)
0: all assays above

Cc1cccc(CC(=O)N2CCc3c2ccc(-c2cn(C)c4ncnc(N)c24)c3F)n1 (10 µM)
1: BMX
0: all other assays above

COC(=O)N1CCN(C2CCC(Nc3nc(Nc4cnn(C)c4)nc4ccc(CC#N)nc34)CC2)CC1 (stereo not given) (10 µM)
1: BRAF_V600E
0: all other assays above

Reference: the supplement of paper PMC12823440, “Inhibitors supercharge kinase turnover through native proteolytic circuits” (Nature, 2025)
